Measured values published in US20120041058A1, “COMPOSITION OF TRADITIONAL CHINESE MEDICINE FOR REDUCING BLOOD FAT AND PREPARATION METHOD THEREOF” (ANJI GREEN LIFE BIOTECH CO., LTD., priority 2009, published 2012).

Tested on: lipid metabolism disorder rat model
Assay: Prophylactic administration in the rat model of lipid metabolism disorder (high-fat food)
Type: in vivo, SD rats
Method: Influence of the prophylactic administration of the blood-lipid-lowering traditional Chinese medicine compositions on the rat model of lipid metabolism disorder. Thirty SD rats were fed with general nutrition food for a week, then the blood collection was carried out via capillary eye canthus for separating serum. The levels of triglyceride (TG), total cholesterol (CHO), high density lipoprotein cholesterol (HDL-C) and low density lipoprotein cholesterol (LDL-C) were determined. According to the above respective item and the body weight index of rats, the animals were sampled and uniformly divided into five groups. [table] […] Then the abdominal aortic bloods were collected, the serum was centrifuging separated, and the levels of AST, ALT, ALP, T-Bil, TG, CHO, HDL-C and LDL-C were determined. Weighing the liver to calculate the liver coefficients. […] Statistic analysis: All of the above indicators are expressed in mean±standard deviation, and compared using the t-test.

[1] = SD rats, high-fat food, 2 weeks, liver lipid extract, dose 10 mg/kg
[2] = SD rats, high-fat food, 2 weeks, serum, dose 10 mg/kg
[3] = SD rats, high-fat food, 2 weeks, dose 10 mg/kg
[4] = SD rats, high-fat food, serum, dose 10 mg/kg
[5] = SD rats, high-fat food, dose 10 mg/kg
[6] = SD rats, serum, baseline, group dose 10 mg/kg

CC(C)c1c(C(=O)Nc2ccccc2)c(-c2ccccc2)c(-c2ccc(F)cc2)n1CC[C@@H](O)C[C@@H](O)CC(=O)O [Atorvastatin]
CHO content of liver [1]: 9.66 ± 1.23 mmol/L
TG content of liver [1]: 10.37 ± 1.72 mmol/L
ALP [2]: 43.2 ± 8.8 IU/L
ALT [2]: 52.7 ± 12.5 IU/L
AST [2]: 94.3 ± 30.1 IU/L
T-Bil [2]: 6.61 ± 2.57 µmol/L
Liver index [3]: 41.49 ± 1.97 mg/g
Liver weight [3]: 11.06 ± 0.77 g
H/L after 2 weeks of administration (SD rats, high-fat food, serum HDL-C/LDL-C ratio, dose 10 mg/kg): 0.90 ± 0.30
CHO after 2 weeks of modeling and administration [4]: 3.35 ± 0.50 mmol/L
HDL-C after 2 weeks of administration [4]: 1.04 ± 0.17 mmol/L
LDL-C after 2 weeks of administration [4]: 1.27 ± 0.47 mmol/L
TG after 2 weeks of modeling and administration [4]: 2.14 ± 1.03 mmol/L
body weight After 1 week of administration [5]: 231.2 ± 7.6 g
body weight After 2 weeks of administration [5]: 255.0 ± 11.0 g
body weight After 3 weeks of administration [5]: 266.7 ± 13.7 g
H/L before administion (SD rats, serum HDL-C/LDL-C ratio, baseline, group dose 10 mg/kg): 2.35 ± 1.44
CHO before administion [6]: 1.61 ± 0.35 mmol/L
HDL-C before administion [6]: 0.74 ± 0.06 mmol/L
LDL-C before administion [6]: 0.43 ± 0.24 mmol/L
TG before administion [6]: 1.52 ± 0.33 mmol/L
H/L ratios vs model group (oral 10 mg/kg, result in words): significantly increased
LDL-C vs model group (oral 10 mg/kg, result in words): significant effect of reducing LDL-C
serum CHO level of hyperlipidemia rats vs model group (oral 10 mg/kg, result in words): significantly reduce the serum CHO level
serum HDL-C levels of hyperlipidemia rats vs model group (oral 10 mg/kg, result in words): significantly increase the serum HDL-C levels
